# Measurements reported in PubChem BioAssay AID330 (DTP/NCI, 2004).
# The list shows only some results of the screen, not a fair sample: it is rich in T/C values a quarter to a half above the control, in often repeated tests (any T/C) and in doses without a T/C. Further doses and runs are listed elsewhere. T/C gives the treated animals as a percentage of the vehicle group. Some doses have a count of surviving animals in place of a T/C: the source holds a T/C of zero for them, seemingly a mark for toxic or unscored doses. Some survivor counts are full or nearly so, which does not show that the dose was tolerated: survival well below the control is almost never listed, so the zero probably covers shortened survival too. Counts of survivors are from the toxicity check (mostly the fifth day) where no day follows; animals may have died later. Schedules are NCI's codes, taken here to give the interval after Q, in days (D) or hours (H), and the number of doses after X. Some entries hold several experiments; the values are given in rising order. Where survival is the endpoint, this PubChem deposit counts one and a half times the control or more as active, and values a quarter to a half above the control carry no call in these data; other NCI protocols may use other cut-offs.
# Test system: P388 leukemia ip, CD2F1 mice, survival T/C
# Assay: NCI In Vivo Anticancer Drug Screen. Data for tumor model P388 Leukemia (intraperitoneal) in CD2F1 (CDF1) mice
# Details: T/C endpoint: median survival time, higher T/C = longer survival
# [1] = dose: 100.0 mg/kg/injection, schedule: Q01DX005 (ip), vehicle: saline with Tween-80
# [2] = dose: 200.0 mg/kg/injection, schedule: Q01DX005 (ip), vehicle: saline with Tween-80
# [3] = dose: 200.0 mg/kg/injection, schedule: Q01DX009 (ip), vehicle: saline with Tween-80
compound,measurement,setting,value
CCC1COC(CC)N1 (stereo not given),T/C,[1],128 % of control
same,T/C,[2],128 % of control
same,survivor count,[2],0 of 5
same,survivor count,"dose: 400.0 mg/kg/injection, schedule: Q01DX005 (ip), vehicle: saline with Tween-80",0 of 5
CN(C)C(=S)S(=O)(=O)c1ccc(Cl)cc1,survivor count,"dose: 50.0 mg/kg/injection, schedule: Q01DX009 (ip), vehicle: saline with Tween-80",6 of 6
same,survivor count,"dose: 100.0 mg/kg/injection, schedule: Q01DX009 (ip), vehicle: saline with Tween-80",2 of 6
same,survivor count,"dose: 100.0 mg/kg/injection, schedule: Q04DX002 (ip), vehicle: Klucel (hydroxypropylcellulose) (HPC)",0 of 6 and 3 of 6
same,survivor count,[3],0 of 6
same,survivor count,"dose: 200.0 mg/kg/injection, schedule: Q04DX002 (ip), vehicle: Klucel (hydroxypropylcellulose) (HPC)",0 of 6
same,survivor count,"dose: 400.0 mg/kg/injection, schedule: Q04DX002 (ip), vehicle: Klucel (hydroxypropylcellulose) (HPC)",0 of 6
NC(=O)CC1OC(=O)Cc2cc3c(c(O)c21)C(=O)c1c(O)cccc1C3=O (stereo not given),survivor count,"dose: 12.0 mg/kg/injection, schedule: Q01DX009 (ip), vehicle: DMSO",2 of 6
CCCCNC1C2CCC(C)(C1O)C2(C)C (stereo not given),survivor count,"dose: 100.0 mg/kg/injection, schedule: Q01DX005 (ip), vehicle: Klucel (hydroxypropylcellulose) (HPC)",0 of 6
same,survivor count,"dose: 200.0 mg/kg/injection, schedule: Q01DX005 (ip), vehicle: Klucel (hydroxypropylcellulose) (HPC)",0 of 6
NC(=Nc1ccccc1)SCCCCCCSC(N)=Nc1ccccc1,survivor count,"dose: 200.0 mg/kg/injection, schedule: Q01DX009 (ip), vehicle: Klucel (hydroxypropylcellulose) (HPC)",0 of 6
CCCCCC(C1SC(=S)NC1=O)C1SC(=S)NC1=O (stereo not given),survivor count,[2],2 of 5
O=C(CC(O)c1ccccc1)Sc1ccccc1 (stereo not given),survivor count,"dose: 100.0 mg/kg/injection, schedule: Q04DX003 (ip), vehicle: Klucel (hydroxypropylcellulose) (HPC)",3 of 6
same,survivor count,"dose: 200.0 mg/kg/injection, schedule: Q04DX003 (ip), vehicle: Klucel (hydroxypropylcellulose) (HPC)",2 of 6
same,survivor count,"dose: 400.0 mg/kg/injection, schedule: Q04DX003 (ip), vehicle: Klucel (hydroxypropylcellulose) (HPC)",1 of 6
COCC(=O)Oc1ccc[nH]c1=O,survivor count,"dose: 400.0 mg/kg/injection, schedule: Q01DX009 (ip), vehicle: saline",0 of 6 and 2 of 6
O=c1c(Cl)c2oc3ccc([N+](=O)[O-])cc3nc-2c(Cl)c1Cl,survivor count,[3],0 of 6
Nc1cc2c(c[n+](CCCCCCC[n+]3cc4c5ccccc5c(N)cc4c4ccccc43)c3ccccc23)c2ccccc12,T/C,"dose: 3.13 mg/kg/injection, schedule: Q04DX003 (ip), vehicle: other",144 % of control
same,survivor count,"dose: 50.0 mg/kg/injection, schedule: Q04DX003 (ip), vehicle: other",6 of 6
O=[N+]([O-])c1ccc(CS(=O)(=O)c2cccs2)o1,survivor count,"dose: 200.0 mg/kg/injection, schedule: Q01DX009 (ip), vehicle: suspension in saline",6 of 6
CC1CN=C(c2ccc(NC(=O)c3ccc(C(=O)Nc4ccc(C5=NCC(C)N5)cc4)c(N)c3)cc2)N1 (stereo not given),T/C,"dose: 5.0 mg/kg/injection, schedule: Q04DX003 (ip), vehicle: saline with Tween-80",136 % of control
same,survivor count,"dose: 20.0 mg/kg/injection, schedule: Q04DX003 (ip), vehicle: saline with Tween-80",2 of 6
same,survivor count,"dose: 100.0 mg/kg/injection, schedule: Q04DX003 (ip), vehicle: saline",0 of 6
same,survivor count,"dose: 200.0 mg/kg/injection, schedule: Q04DX003 (ip), vehicle: saline",0 of 6
same,survivor count,"dose: 400.0 mg/kg/injection, schedule: Q04DX003 (ip), vehicle: saline",0 of 6
CC1=C(C)C(=O)c2nn(C)nc2C1=O,survivor count,"dose: 100.0 mg/kg/injection, schedule: Q01DX001 (ip), vehicle: saline with Tween-80",1 of 6
same,survivor count,"dose: 200.0 mg/kg/injection, schedule: Q01DX001 (ip), vehicle: saline with Tween-80",0 of 6
same,survivor count,"dose: 400.0 mg/kg/injection, schedule: Q01DX001 (ip), vehicle: saline with Tween-80",0 of 6
NC(N)=N/N=C/c1ccc(-c2ccccc2)cc1,survivor count,"dose: 25.0 mg/kg/injection, schedule: Q01DX009 (ip), vehicle: saline with Tween-80",3 of 6
COc1cc(N=Nc2ccccc2)cc(/C=N\NC(=S)Nc2cccc(C)c2)c1O,survivor count,[1],3 of 6
same,survivor count,[2],0 of 6
Cc1cc(-c2ccc(N=Nc3ccc4c(S(=O)(=O)O)cc(S(=O)(=O)O)c(N)c4c3O)c(C)c2)ccc1N=Nc1ccc2c(S(=O)(=O)O)cc(S(=O)(=O)O)c(N)c2c1O,survivor count,"dose: 50.0 mg/kg/injection, schedule: Q01DX009 (ip), vehicle: saline",6 of 6
